Assay results as given in US20230381159A1 (priority 2020, published 2023).
Some entries share one result that the patent states for a list of compounds.

Target: SARS-CoV-2-RBD-hACE2 PPI (Severe acute respiratory syndrome coronavirus 2, UniProt P0DTC2)
Assay type: binding, SARS-CoV-2 / human

SMILES	inhibitory activity in SARS-CoV-2 S-ACE2 assay
O=C(Nc1ccc(-c2ccc(C(=O)Nc3cccc4cccc(S(=O)(=O)O)c34)cc2)nc1)c1ccc([N+](=O)[O-])cc1 [Compound A4]	good inhibitory activity
O=C(Nc1ccc(-c2ccc(C(=O)Nc3cccc4cccc(S(=O)(=O)O)c34)cc2)cc1)c1ccc([N+](=O)[O-])cc1 [Compound A1]	good inhibitory activity
O=C(Nc1ccc2cc(S(=O)(=O)O)cc(O)c2c1)c1ccc(-c2ccc(C(=O)Nc3ccc4cc(S(=O)(=O)O)cc(O)c4c3)cc2)cc1 [Compound A5]	good inhibitory activity
